# Test results as given in PubChem BioAssay AID2551 (National Center for Advancing Translational Sciences (NCATS), 2010).
# Sequences of proteins named here, by UniProt entry; tags and fusion partners are left off. A change or cut given only in a name is not applied to a line headed by its entry.
# UniProt P51450: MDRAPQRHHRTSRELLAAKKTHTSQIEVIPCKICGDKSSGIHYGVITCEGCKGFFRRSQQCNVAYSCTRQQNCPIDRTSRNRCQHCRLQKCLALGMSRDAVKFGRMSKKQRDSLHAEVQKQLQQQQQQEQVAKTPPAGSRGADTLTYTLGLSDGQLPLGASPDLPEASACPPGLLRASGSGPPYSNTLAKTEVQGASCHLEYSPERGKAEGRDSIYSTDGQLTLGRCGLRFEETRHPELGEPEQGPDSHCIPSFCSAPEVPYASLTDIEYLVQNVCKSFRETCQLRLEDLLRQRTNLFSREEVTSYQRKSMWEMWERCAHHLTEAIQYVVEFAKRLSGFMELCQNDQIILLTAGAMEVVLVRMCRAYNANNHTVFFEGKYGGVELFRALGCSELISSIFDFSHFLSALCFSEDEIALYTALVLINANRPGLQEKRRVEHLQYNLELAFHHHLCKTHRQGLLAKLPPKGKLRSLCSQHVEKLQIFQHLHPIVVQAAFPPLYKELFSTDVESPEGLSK
# In all, about 310,000 compounds went through this assay and about 17,000 (5.5%) were called active. This list was built around the results that the source calls inconclusive (neither active nor inactive); the mix of calls is not that of the screen. Calls follow the shape of the dose curve; as a rule, active = well fitted inhibition curve with a large enough effect; inconclusive = small, poorly fitted or top-dose-only effect, or effect the other way; inactive = no such curve, though single readings can be large or run the other way. A potency beside an inconclusive call is a rough fit, not a confirmed value.
# Target: Nuclear receptor ROR-gamma (Mus musculus) (UniProt P51450)
# Experiment: qHTS for inhibitors of ROR gamma transcriptional activity; also: nearly all actives have a fitted effect of over 60% in size
# Details: Drosophila S2 Gal4-RORgamma UAS-luciferase reporter, 20 h; activity change, negative = inhibition: at 53.6 µM (top of the series)
# How it was run: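 Schneider cells (Drosophila), stable Gal4 DBD–ROR gamma + UAS-luc; 1 hr cmpd preincubation; Cu2+ induction 700 uM final; 20 hr ambient; luminescence.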
# % is scaled to controls: 0 for no effect and ±100 for the full control effect; potency is read from the fitted curve at half-maximal effect.
Compound,Potency,"activity change, negative = inhibition"
COc1ccc(/C=C/C(=O)c2ccccc2O)cc1,"inconclusive: 39.8 µM [inhibitor, partial curve, poor fit]",–
CC(=O)OC[C@@]1(O)C[C@@]23CC[C@@H]4c5ccoc5CC[C@@]4(C)[C@@H]2CCC1C3,"inconclusive: 28.2 µM [inhibitor, single point]",–
Cc1ccc(F)cc1CNC(=O)c1cc(COc2ccc3ncccc3c2)on1,"inconclusive: 31.6 µM [inhibitor, single point]",–
CCCCC(=O)N1CCN(c2ccc(OC)cc2[N+](=O)[O-])CC1,"inconclusive: 35.5 µM [activator, single point]",–
CC1(C)CC(=O)c2sc(NC(=O)CN3C(=O)CCC3=O)nc2C1,inactive,–
O=C(N/N=C/c1ccc(-c2cccc(C(F)(F)F)c2)o1)c1ccccc1Br,active: 11.2 µM,–
O=C(NC1CCCC1)C(c1ccsc1)N(C(=O)Cc1cccs1)c1ccccc1 (stereo unspecified),"inconclusive: 35.5 µM [inhibitor, single point]",–
CC1CCCC(C)N1C(=O)c1ccc(CS(=O)(=O)c2ccccc2)cc1 (stereo unspecified),inactive,–
O=C1c2ccccc2NC(c2ccc(-c3cccc([N+](=O)[O-])c3)o2)N1O (stereo unspecified),"inconclusive: 10 µM [inhibitor, partial curve, poor fit]",–
COc1ccc(CNS(=O)(=O)c2ccc(-n3cnnn3)c(OC)c2)cc1,"inconclusive: 14.1 µM [activator, partial curve]",–
O=S(=O)(c1ccccc1)N1CCC2(CCN(c3cccc(-c4ccccc4)c3)CC2)CC1,inactive,–
CCOC(=O)N1CCN(C(=S)NC(=O)c2ccc(F)cc2)CC1,active: 2 µM,–
COc1ccc(CCn2nnnc2C(C(C)C)N2CCC(C(N)=O)CC2)cc1OC (stereo unspecified),"inconclusive: 0.251 µM [inhibitor, full curve, poor fit]",–
CC(=O)N1CCc2cc(C(=O)CN3CCN(c4ccccc4F)CC3)ccc21,"inconclusive: 10 µM [inhibitor, partial curve]",–
COc1ccc(NC(=O)Nc2nnc(-c3ccncc3)s2)cc1,"inconclusive: 7.94 µM [activator, partial curve]",–
Cc1ccc(OCCNC(=O)c2cc(C(=O)NCCOc3ccc(C)cc3)cc([N+](=O)[O-])c2)cc1,"inconclusive: 11.2 µM [activator, partial curve]",–
Cc1nnc(SCC(=O)NC(=O)NCc2ccco2)s1,inactive,–
Cn1c(=O)oc2cc(S(=O)(=O)N3CCCC(C(=O)N4CCc5ccccc5C4)C3)ccc21 (stereo unspecified),"inconclusive: 22.4 µM [activator, single point]",–
Fc1ccc(F)c(CNc2ncnc3cc(Cl)ccc23)c1,"inconclusive: 1.58 µM [activator, single point]",–
COc1ccc(CCNC(=O)c2cccnc2SC)cc1,"inconclusive: 35.5 µM [activator, single point]",–
Cc1ccc(O)c(C(=O)CC(=O)c2ccc(Cl)cc2)c1,active: 3.55 µM,–
COc1ccc2nc(N3CCCC(C(=O)NCCc4ccc(OC)c(OC)c4)C3)sc2c1 (stereo unspecified),"inconclusive: 2.82 µM [activator, single point]",–
CCOC(=O)c1c(-c2ccc(-c3ccccc3)cc2)csc1NC(=O)CNCCN(C)C,active: 0.631 µM,–
CCN1CCN(C(=O)C(C)Nc2cc(Cl)c(OC)cc2OC)CC1 (stereo unspecified),inactive,–

# Of the compounds above, these contain fluorine.
Compound,Potency,"activity change, negative = inhibition"
Cc1ccc(F)cc1CNC(=O)c1cc(COc2ccc3ncccc3c2)on1,"inconclusive: 31.6 µM [inhibitor, single point]",–
O=C(N/N=C/c1ccc(-c2cccc(C(F)(F)F)c2)o1)c1ccccc1Br,active: 11.2 µM,–
CCOC(=O)N1CCN(C(=S)NC(=O)c2ccc(F)cc2)CC1,active: 2 µM,–
CC(=O)N1CCc2cc(C(=O)CN3CCN(c4ccccc4F)CC3)ccc21,"inconclusive: 10 µM [inhibitor, partial curve]",–
Fc1ccc(F)c(CNc2ncnc3cc(Cl)ccc23)c1,"inconclusive: 1.58 µM [activator, single point]",–

# Next compounds:

Compound,Potency,"activity change, negative = inhibition"
O/C(=C\c1nc2ccccc2[nH]1)c1cccs1,"inconclusive: 35.5 µM [inhibitor, single point]",–
CC(C)(C)c1[nH]nc2c1C(c1cccnc1)C(C#N)=C(N)O2 (stereo unspecified),"inconclusive: 14.1 µM [activator, single point]",–
O=C(NC12CC3CC(CC(C3)C1)C2)c1ccccc1,"inconclusive: 15.8 µM [inhibitor, single point]",–
Cc1ccc2nc(/C(C#N)=C\c3ccc(N4CCOCC4)o3)[nH]c2c1,"inconclusive: 3.16 µM [activator, single point]",–
COc1ccc(NC(=O)COC(=O)/C=C/C(=O)OCC(=O)Nc2ccc(OC)c(Cl)c2)cc1Cl,–,inactive: 18.7% [at 10 µM]
CC(=O)Nc1ccc(N2C(=O)CC(Sc3nccc(C)n3)C2=O)cc1 (stereo unspecified),"inconclusive: 35.5 µM [inhibitor, single point]",–
COC(=O)/C=C1/S/C(=N/NC(=O)c2ccc(Cl)cc2Cl)NC1=O,"inconclusive: 17.8 µM [inhibitor, single point]",–
COc1ccc(-c2nc3cnc(N4CCNCC4)nc3n(Cc3cccs3)c2=O)cc1,"inconclusive: 35.5 µM [inhibitor, single point]",–
COCCn1c(SCC(=O)Nc2sc(C)c(C)c2C#N)nnc1-c1ccc(OC)cc1,"inconclusive: 35.5 µM [inhibitor, single point]",–
COc1ccc(Cn2c(=S)[nH]c3cc(C(=O)NCCCN4CCOCC4)ccc3c2=O)cc1,inactive,–
CCCC(=O)N(Cc1cc(=O)[nH]c2ccccc12)c1cccc(C)c1,inactive,–
Cc1ccc2c(Cl)cc(Cl)c(OCC(=O)Nc3ccc(C)c(S(=O)(=O)N(C)C)c3)c2n1,active: 7.08 µM,–
COc1cccc2sc(NNC(=O)c3nc4ccccc4s3)nc12,active: 3.55 µM,–
O=C(Cn1ncc2c3ccccc3n(Cc3ccccc3)c2c1=O)NCc1ccco1,inactive,–
Cc1ccc(N2CC(C(=O)Nc3ncc([N+](=O)[O-])s3)CC2=O)cc1 (stereo unspecified),"inconclusive: 11.2 µM [activator, partial curve]",–
O=C(Nc1ccc(Oc2cccc(C(F)(F)F)c2)nc1)c1ccco1,"inconclusive: 10 µM [activator, single point]",–
COc1ccc2[nH]cc(CCNc3ncnc4ccc(-c5cccnc5)cc34)c2c1,"inconclusive: 1.41 µM [activator, full curve, poor fit]",–
CCC[C@@H](NS(=O)(=O)c1ccc(C)cc1)C(=O)Oc1ccc2c3c(c(=O)oc2c1)CCC3,"inconclusive: 31.6 µM [inhibitor, single point]",–
COc1cccc2cc(C(C)N(CCCN3CCOCC3)C(=S)Nc3cccc(C)c3)oc12 (stereo unspecified),"inconclusive: 35.5 µM [inhibitor, single point]",–
COc1ccnc(Oc2cccc(C(F)(F)F)c2)c1C(=O)N/C=N/OCc1ccccc1F,inactive,–
O=C(NCCN1CCOCC1)C1(C(F)(F)F)C/C(=C\CCO)CCCO1 (stereo unspecified),inactive,–
Cc1cc([N+](=O)[O-])ccc1NCc1ccc2ccccc2c1,inactive,–
CCn1c2ccccc2c2cc(NC(=S)N3CCOCC3)ccc21,active: 3.16 µM,–
O=C(NC1CCSc2ccccc21)c1ccccc1Cl (stereo unspecified),"inconclusive: 1.12 µM [activator, full curve, poor fit]",–

Compound,Potency,"activity change, negative = inhibition"
Cc1nn(C(=O)Cn2cc([N+](=O)[O-])cn2)c(C)c1Cl,inactive,–
CN1CCN(c2ncnc3ccc(-c4ccccc4C#N)cc23)CC1,"inconclusive: 11.2 µM [activator, single point]",–
Cc1ccc(S(=O)(=O)NNc2nc3ccccc3nc2C(F)(F)F)cc1,active: 17.8 µM,–
Cc1cc(NCc2ccco2)n2c(nc3ccccc32)c1C#N,inactive,–
Cc1cc(NC(=S)NC(=O)c2ccco2)c2ccccc2n1,active: 11.2 µM,–
O=C(COC(=O)c1ccccc1Sc1ccc(C(F)(F)F)cc1[N+](=O)[O-])NC(=O)NC1CCCC1,"inconclusive: 10 µM [activator, partial curve]",–
COc1ccc(Cl)cc1NC(=O)C(C)N(C)Cc1cccc(Cl)c1Cl (stereo unspecified),"inconclusive: 11.2 µM [activator, partial curve]",–
C[C@@H](NC(=O)[C@@H]1Cc2ccccc2CN1C(=O)OC(C)(C)C)C(=O)NCc1ccco1,"inconclusive: 22.4 µM [activator, single point]",–
COc1ccc(-c2ccccc2C2C3C=CCCC3(C)C(=O)N2Cc2ccccc2)cc1 (stereo unspecified),"inconclusive: 35.5 µM [inhibitor, single point]",–
CCOc1ccc(-c2cc(C(=O)N/N=C(\C)c3cccnc3)c3ccccc3n2)cc1,inactive,–
O=c1cc(CSc2nnnn2-c2ccccc2)nc2sccn12,inactive,–
COc1cc2c(cc1OC)-c1c(oc3cc(O)cc(O)c3c1=O)CO2,"inconclusive: 11.2 µM [inhibitor, single point]",–
Cc1cc(C)c2c(=O)n(CC(=O)Nc3cccc(Cl)c3C)sc2n1,"inconclusive: 7.08 µM [inhibitor, full curve, poor fit]",–
CC(C)Cn1c(C(C)C)nc([N+](=O)[O-])c1S(=O)(=O)c1ccc(F)cc1,active: 11.2 µM,–
O=C(Nc1nc(-c2ccc3c(c2)Cc2ccccc2-3)cs1)c1ccccc1,"inconclusive: 35.5 µM [inhibitor, single point]",–
O=C(Nc1ccc(F)cc1)c1cc(Cl)sc1Cl,"inconclusive: 20 µM [activator, single point]",–
CC(C)(C)c1ccc(C(=O)NNC(=S)NC(=O)c2cccnc2)cc1,active: 2.82 µM,–
CC(C)c1c(O)nc(SCCN(C)C)[nH]c1=O,"inconclusive: 22.4 µM [inhibitor, single point]",–
CCc1ccc(NC(=O)CSc2nc3ccccc3nc2N2CCCC2)cc1,inactive,–
COCCOC(=O)C1=C(N)OC2=C(C(=O)CC(C)(C)C2)C1c1ccncc1 (stereo unspecified),inactive,–
Cc1ccc(CN(Cc2ccccc2)C(=S)Nc2ccccc2C)o1,active: 7.08 µM,–
COc1ccc2nc(NC(=O)C3COc4ccccc4O3)sc2c1 (stereo unspecified),"inconclusive: 10 µM [inhibitor, partial curve, poor fit]",–
N#Cc1c(NC(=O)CSc2nc3c(c(C(F)(F)F)n2)CCc2ccccc2-3)sc2c1CCCC2,inactive,–
